Results as given in article PMC9820469.
No constants are given. Whether binding was seen depends on the method and setting. Binding seen in cells or lysates may run through a third protein. Some binding calls cover weakened binding; strength is not graded here.

Amino acid sequences for entries named in this document (tags omitted).
UniProt P17096: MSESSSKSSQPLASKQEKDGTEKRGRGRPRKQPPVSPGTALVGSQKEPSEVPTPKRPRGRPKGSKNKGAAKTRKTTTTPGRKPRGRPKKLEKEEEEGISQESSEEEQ

Target: High mobility group A1 (HMGA1) (human (endogenous in MDA-MB-231)) (UniProt P17096)
Experiment: co-IP; α-HMGA1 (negative control α-GFP) on protein G agarose beads; 500 μg MDA-MB-231 cell lysate digested with DNase I (1100 U per 550 μg, 20 min, 37 °C), 3 h at 4 °C in Lysis Buffer; washed three times in Tris/HCl pH seven; western blot with α-HMGA1 and α-NPAT; a lysate not treated with DNase I was run in parallel

binding: binds
B1: nuclear protein of the ataxia-telangiectasia mutated locus (NPAT) (protein, UniProt Q14207 1-1427)
chain: MLLPSDVARLVLGYLQQENLISTCQTFILESSDLKEYAEHCTDEGFIPACLLSLFGKNLTTILNEYVAMKTKETSNNVPAIMSSLWKKLDHTLSQIRSMQSSPRFAGSQRARTRTGIAEIKRQRKLASQTAPASAELLTLPYLSGQFTTPPSTGTQVTRPSGQISDPSRSYFVVVNHSQSQDTVTTGEALNVIPGAQEKKAHASLMSPGRRKSESQRKSTTLSGPHSTIRNFQDPNAFAVEKQMVIENAREKILSNKSLQEKLAENINKFLTSDNNIAQVPKQTDNNPTEPETSIDEFLGLPSEIHMSEEAIQDILEQTESDPAFQALFDLFDYGKTKNNKNISQSISSQPMESNPSIVLADETNLAVKGSFETEESDGQSGQPAFCTSYQNDDPLNALKNSNNHDVLRQEDQENFSQISTSIQKKAFKTAVPTEQKCDIDITFESVPNLNDFNQRGNSNAECNPHCAELYTNQMSTETEMAIGIEKNSLSSNVPSESQLQPDQPDIPITSFVSLGCEANNENLILSGKSSQLLSQDTSLTGKPSKKSQFCENSNDTVKLKINFHGSKSSDSSEVHKSKIEINVLEPVMSQLSNCQDNSCLQSEILPVSVESSHLNVSGQVEIHLGDSLSSTKQPSNDSASVELNHTENEAQASKSENSQEPSSSVKEENTIFLSLGGNANCEKVALTPPEGTPVENSHSLPPESVCSSVGDSHPESQNTDDKPSSNNSAEIDASNIVSLKVIISDDPFVSSDTELTSAVSSINGENLPTIILSSPTKSPTKNAELVKCLSSEETVGAVVYAEVGDSASMEQSLLTFKSEDSAVNNTQNEDGIAFSANVTPCVSKDGGYIQLMPATSTAFGNSNNILIATCVTDPTALGTSVSQSNVVVLPGNSAPMTAQPLPPQLQTPPRSNSVFAVNQAVSPNFSQGSAIIIASPVQPVLQGMVGMIPVSVVGQNGNNFSTPPRQVLHMPLTAPVCNRSIPQFPVPPKSQKAQGLRNKPCIGKQVNNLVDSSGHSVGCHAQKTEVSDKSIATDLGKKSEETTVPFPEESIVPAAKPCHRRVLCFDSTTAPVANTQGPNHKMVSQNKERNAVSFPNLDSPNVSSTLKPPSNNAIKREKEKPPLPKILSKSESAISRHTTIRETQSEKKVSPTEIVLESFHKATANKENELCSDVERQKNPENSKLSIGQQNGGLRSEKSIASLQEMTKKQGTSSNNKNVLSVGTAVKDLKQEQTKSASSLITTEMLQDIQRHSSVSRLADSSDLPVPRTPGSGAGEKHKEEPIDIIKAPSSRRFSEDSSTSKVMVPPVTPDLPACSPASETGSENSVNMAAHTLMILSRAAISRTTSATPLKDNTQQFRASSRSTTKKRKIEELDERERNSRPSSKNLTNSSIPMKKKKIKKKKLPSSFPAGMDVDKFLLSLHYDE
